Screening data

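Mouse JNK3 activity from prestimulated HepG2 lysate, measured as phospho-c-Jun AlphaScreen signal after two hours of kinase reaction plus three hours detection. Each compound ran as a dilution series from about 0.6 nM up to 57.1 µM. Fitted AC50 for either an inhibiting or an activating curve; a lower value means greater potency. Calls come from the fitted dose curve (inhibitor, activator, inactive or inconclusive); every row here is inconclusive, including some full curves, so the exact cut-off is unclear.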

Values are in nM. All entries here are filed as inconclusive. Only part of the assay is shown, chiefly results filed as inconclusive. Potencies fitted to partial, single-point or poorly fitting curves are rough. The first word of each remark tells which way the curve ran; it can be opposite to the aim of the assay. An entry listed twice with the same setting is a separate test.

| # | Compound | fitted potency (nM) | curve as filed |
|---|---|---|---|
| 1 | `Nc1ccc(N=Nc2ccccc2)c(N)n1` | 39810 | inhibitor, partial curve, poor fit |
| 2 | `CC(C)[C@@H](CC(=O)N[C@@H]1CCCC[C@H]1C(=O)N[C@H](CC(=O)N[C@@H](CCC(=O)O)CC(=O)O)Cc1c[nH]c2ccccc12)NC(=O)C[C@H](Cc1c[nH]c2ccccc12)NC(=O)[C@@H]1CNCC[C@H]1N` | 15848 | inhibitor, single point |
| 3 | `O=C(O)/C=C/c1ccc(/C=C/C(=O)O)cc1` | 15848 | activator, single point |
| 4 | `CCCC/C=C/C(NC(=O)Oc1cccc(C(F)(F)F)c1)c1ccccc1` (stereo not shown) | 25118 | activator, partial curve |
| 5 | `CCOP(=S)(OCC)Oc1nc(Cl)c(Cl)cc1Cl` | 39810 | activator, single point |
| 6 | `CN1Cc2ccccc2[C@@H]2c3cccc4[nH]cc(c34)C[C@H]21` | 12589 | inhibitor, partial curve |
| 7 | `O=C1c2ccccc2C(=O)c2c(Nc3cc4c5c(ccc6c7ccc8c9c(cc(Nc%10cccc%11c%10C(=O)c%10ccccc%10C%11=O)c(c3c56)c97)-c3ccccc3C8=O)C(=O)c3ccccc3-4)cccc21` | 3162 | inhibitor, partial curve |
| 8 | `OC[C@@H]1O[C@H](O)[C@@H](Cl)[C@H](O)[C@@H]1O` | 15848 | activator, partial curve |
| 9 | `Nc1ccc(N=Nc2ccccc2)c(N)n1` | 10000 | inhibitor, partial curve |
| 10 | `CC(C)N(CC(=O)O)CC(=O)O` | 31.62 | activator, full curve, poor fit |
| 11 | `COc1cc(-c2cc(=O)c3ccccc3o2)ccc1O` | 12589 | inhibitor, partial curve |
| 12 | `Cc1nccc2c1[nH]c1ccccc12` | 19.95 | inhibitor, full curve, poor fit |
| 13 | `CCCCCCCCCCCCCCCCCC(=O)NC[C@@H](COP(=O)([O-])OCC[N+](C)(C)C)OCC` | 39810 | activator, partial curve, poor fit |
| 14 | `O=[N+]([O-])c1ccccc1CCl` | 125.9 | activator, full curve, poor fit |
| 15 | `CCCN(CCC)C1Cc2cc(OC)c(OC)cc2C1` | 3981 | activator, partial curve, poor fit |
| 16 | `Clc1cccc(Cl)c1Cl` | 15848 | activator, full curve, poor fit |
| 17 | `CN1CCN(CC(=O)N2c3ccccc3C(=O)Nc3cccnc32)CC1` | 25118 | activator, partial curve, poor fit |
| 18 | `CN/C(=C\[N+](=O)[O-])NCCSCc1ccc(CN(C)C)o1` | 31.62 | activator, full curve, poor fit |
| 19 | `O=[N+]([O-])C(Br)Br` | 31622 | activator, partial curve, poor fit |
| 20 | `CCCCCCCC/C=C\CCCCCCCC(=O)NCc1ccc(O)c(OC)c1` | 39810 | inhibitor, single point |
| 21 | `Cn1cnc([N+](=O)[O-])c1Sc1ncnc2nc[nH]c12` | 10 | activator, full curve, poor fit |
| 22 | `COc1ccc2[nH]c(C(=O)c3ccccc3)cc2c1` | 15.85 | activator, full curve, poor fit |
| 23 | `Cc1ccc(S(=O)(=O)/C=C\C#N)cc1` | 19952 | inhibitor, partial curve, poor fit |
| 24 | `CC(C)[C@H]1C(=O)C(C(N)=O)=C(O)[C@]2(O)C(=O)C3=C(O)c4c(O)ccc(N(C)C)c4C[C@H]3C[C@@H]12` | 25118 | activator, partial curve |

For reference, 2 entries once more:

| Compound | fitted potency (nM) | curve as filed |
|---|---|---|
| `CN/C(=C\[N+](=O)[O-])NCCSCc1ccc(CN(C)C)o1` | 31.62 | activator, full curve, poor fit |
| `Nc1ccc(N=Nc2ccccc2)c(N)n1` | 39810 | inhibitor, partial curve, poor fit |

Source: PubChem BioAssay AID530 (NCATS, 2006).